Results are given in words; binding and its absence hold for the method and conditions named. Binding seen in cells or lysates may run through a third protein. Some entries that bind do so weakly or less than the wild type.
Experiments:
[1] = target: endogenous RCAN1 (human (endogenous in HEK293)) (UniProt P53805); assay: co-IP; untransfected HEK293 lysates immunoprecipitated with anti-RCAN1 or anti-HDAC3 antibodies or normal rabbit IgG, blotted with anti-HDAC3 and anti-RCAN1
[2] = target: endogenous HDAC3 (human (endogenous in HEK293)) (UniProt O15379); assay: as above

Amino acid sequences for entries named in this document (tags omitted).
UniProt P53805: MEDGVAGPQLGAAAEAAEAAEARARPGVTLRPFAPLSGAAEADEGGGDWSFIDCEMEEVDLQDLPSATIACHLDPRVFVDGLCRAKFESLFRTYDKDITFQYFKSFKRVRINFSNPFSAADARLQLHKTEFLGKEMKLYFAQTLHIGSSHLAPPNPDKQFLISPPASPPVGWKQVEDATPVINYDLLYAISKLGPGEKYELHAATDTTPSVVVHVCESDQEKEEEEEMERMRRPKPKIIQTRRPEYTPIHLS
UniProt O15379: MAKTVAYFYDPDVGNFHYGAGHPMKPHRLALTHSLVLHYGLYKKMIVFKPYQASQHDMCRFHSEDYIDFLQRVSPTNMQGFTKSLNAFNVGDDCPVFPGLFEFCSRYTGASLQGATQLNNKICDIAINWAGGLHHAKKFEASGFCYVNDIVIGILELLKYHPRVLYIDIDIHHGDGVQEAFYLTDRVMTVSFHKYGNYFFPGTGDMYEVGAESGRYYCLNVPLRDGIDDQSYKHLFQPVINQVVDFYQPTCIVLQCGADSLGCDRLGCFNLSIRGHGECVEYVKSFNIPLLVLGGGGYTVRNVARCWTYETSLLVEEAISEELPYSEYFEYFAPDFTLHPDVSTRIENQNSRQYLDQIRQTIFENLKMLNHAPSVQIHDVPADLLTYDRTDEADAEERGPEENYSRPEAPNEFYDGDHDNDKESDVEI

Substance | binding [1] | binding [2]
endogenous HDAC3 (from UniProt O15379 1-428) (enzyme) | binds | –
endogenous RCAN1 (from UniProt P53805 1-252) | – | binds

Source: article PMC4140772
